Measured values: patent US20100260678A1
These are yes or no findings as the source states them, for the method shown. Some entries that bind do so weakly or less than the wild type.

Target: biotinylated full-length human IGF-I receptor, captured on streptavidin (human), P08069
Assay: ELISA on immobilized IGF-I receptor, washes of 1-2 days
Conditions: remark: other sources report otherwise

binding: binds
B1: murine anti-IGF-I receptor antibody EM164 (antibody, V domains shown)
VH: QVQLQQSGAELVKPGASVKLSCKASGYTFTSYWMHWVKQRPGQGLEWIGEINPSNGRTNYNEKFKRKATLTVDKSSSTAYMQLSSLTSEDSAVYYFARGRPDYYGSSKWYFDVWGAGTTVTVS
VL: DVLMTQTPLSLPVSLGDQASISCRSSQSIVHSNVNTYLEWYLQKPGQSPKLLIYKVSNRFSGVPDRFSGSGSGTDFTLRISRVEAEDLGIYYCFQGSHVPPTFGGGTKLEIKR
modifications: here or on the partner: biotinylated with PEO-maleimide-biotin reagent (sites not given)
